Experiment [1] addresses Aryl hydrocarbon receptor nuclear translocator (Arnt), in vitro translated (UniProt P53762). Nature of the experiment: co-IP; in vitro: proteins expressed in rabbit reticulocyte lysates, 35S-labelled as required; HEPES 20 mM pH 7.9, NaCl 50 mM, 1% Np40; anti-Tgo or anti-Arnt on Protein-G Sepharose; without or with dioxin in binding reaction and washes; 35S detected with a Typhoon TRIO scanner.

By UniProt entry, the sequences of proteins in these tests, tags left out. Where a name states a change or a piece, a line headed by the entry shows the natural chain unless it says otherwise. Chains listed by the source or under a name are the forms on record and can include a tag or linker. Residues count along the entry.
UniProt P53762: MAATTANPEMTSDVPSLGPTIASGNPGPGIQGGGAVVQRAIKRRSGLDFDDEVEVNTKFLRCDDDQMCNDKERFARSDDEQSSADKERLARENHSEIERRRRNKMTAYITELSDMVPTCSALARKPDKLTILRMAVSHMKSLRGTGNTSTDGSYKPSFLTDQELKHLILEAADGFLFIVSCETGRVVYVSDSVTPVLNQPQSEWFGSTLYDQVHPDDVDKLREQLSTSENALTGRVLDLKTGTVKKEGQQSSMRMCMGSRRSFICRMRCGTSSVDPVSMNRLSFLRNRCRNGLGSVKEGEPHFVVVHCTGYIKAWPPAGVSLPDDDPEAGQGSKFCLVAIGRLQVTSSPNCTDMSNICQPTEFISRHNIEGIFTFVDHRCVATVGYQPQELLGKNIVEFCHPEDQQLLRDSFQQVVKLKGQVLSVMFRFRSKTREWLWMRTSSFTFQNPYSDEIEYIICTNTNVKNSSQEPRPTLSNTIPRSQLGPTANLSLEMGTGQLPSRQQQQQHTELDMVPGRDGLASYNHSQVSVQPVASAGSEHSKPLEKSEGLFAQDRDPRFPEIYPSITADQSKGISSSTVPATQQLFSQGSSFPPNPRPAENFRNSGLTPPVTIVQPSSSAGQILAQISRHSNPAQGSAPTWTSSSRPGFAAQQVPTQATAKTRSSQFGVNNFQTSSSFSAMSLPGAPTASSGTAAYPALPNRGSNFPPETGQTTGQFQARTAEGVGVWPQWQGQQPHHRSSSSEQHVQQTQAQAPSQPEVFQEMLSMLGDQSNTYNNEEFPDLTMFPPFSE
UniProt O15945: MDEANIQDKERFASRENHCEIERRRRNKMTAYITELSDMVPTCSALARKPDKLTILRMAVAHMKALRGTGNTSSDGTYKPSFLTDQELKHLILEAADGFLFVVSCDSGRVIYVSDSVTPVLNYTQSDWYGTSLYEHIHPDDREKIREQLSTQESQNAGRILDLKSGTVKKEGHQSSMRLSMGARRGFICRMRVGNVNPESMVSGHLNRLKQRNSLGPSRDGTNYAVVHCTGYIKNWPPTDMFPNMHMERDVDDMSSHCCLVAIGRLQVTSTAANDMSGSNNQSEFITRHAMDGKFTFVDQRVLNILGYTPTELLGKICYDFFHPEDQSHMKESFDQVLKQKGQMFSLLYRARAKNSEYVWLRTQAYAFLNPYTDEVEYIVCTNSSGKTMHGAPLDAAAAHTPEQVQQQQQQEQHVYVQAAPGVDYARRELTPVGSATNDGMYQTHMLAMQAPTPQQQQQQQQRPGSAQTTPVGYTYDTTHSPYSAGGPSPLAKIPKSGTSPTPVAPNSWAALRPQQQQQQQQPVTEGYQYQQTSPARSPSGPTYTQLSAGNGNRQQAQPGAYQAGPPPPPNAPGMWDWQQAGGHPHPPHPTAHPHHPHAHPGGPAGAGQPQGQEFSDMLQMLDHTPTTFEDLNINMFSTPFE
UniProt P30561: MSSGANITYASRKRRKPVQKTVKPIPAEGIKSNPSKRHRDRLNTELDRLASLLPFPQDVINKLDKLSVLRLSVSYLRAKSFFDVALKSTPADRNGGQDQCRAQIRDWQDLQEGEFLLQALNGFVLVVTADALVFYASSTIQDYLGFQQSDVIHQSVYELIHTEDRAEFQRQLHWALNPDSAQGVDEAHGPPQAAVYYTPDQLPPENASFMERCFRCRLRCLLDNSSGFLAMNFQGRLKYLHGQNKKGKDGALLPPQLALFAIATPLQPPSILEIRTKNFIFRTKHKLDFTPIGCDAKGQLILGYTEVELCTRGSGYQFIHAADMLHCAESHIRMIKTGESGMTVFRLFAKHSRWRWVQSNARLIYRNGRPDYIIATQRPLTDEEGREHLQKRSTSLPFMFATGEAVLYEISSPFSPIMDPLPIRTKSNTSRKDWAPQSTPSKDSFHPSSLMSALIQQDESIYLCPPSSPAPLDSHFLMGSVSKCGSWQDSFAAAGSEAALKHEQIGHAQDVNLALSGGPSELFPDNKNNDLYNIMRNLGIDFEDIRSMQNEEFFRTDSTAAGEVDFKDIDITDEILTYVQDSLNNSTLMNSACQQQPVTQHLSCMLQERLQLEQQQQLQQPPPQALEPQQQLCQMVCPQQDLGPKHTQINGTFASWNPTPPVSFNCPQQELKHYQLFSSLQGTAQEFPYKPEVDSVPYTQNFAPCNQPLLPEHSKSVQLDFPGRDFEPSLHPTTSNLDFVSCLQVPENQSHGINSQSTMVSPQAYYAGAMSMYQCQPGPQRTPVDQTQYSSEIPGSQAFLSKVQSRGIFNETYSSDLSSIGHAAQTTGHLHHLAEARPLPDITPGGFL
Aryl hydrocarbon receptor (mouse Ahr) tagged with GFP: residues 10-848 of P30561

Experiment [2] concerns the target Tango (Tgo), in vitro translated (Drosophila) (UniProt O15945). The experiment is described as above.
The target in experiment [3] is Aryl hydrocarbon receptor (mouse Ahr) tagged with GFP (mouse) (UniProt P30561). Nature of the experiment: co-IP; in vivo: lysates of heat-shocked larvae (2 hours at 37°C); mouse anti-GFP on Protein-G Sepharose precipitates the GFP fusion; Tgo detected by Western blot with anti-Tgo.

Results are given in words; binding and its absence hold for the method and conditions named. In cells and extracts the contact can be indirect. Some entries that bind do so weakly or less than the wild type.

For “Aryl hydrocarbon receptor (Ahr), 35S-labelled, in vitro translated (from UniProt P30561 1-848)”, the binding result in experiment [1] and in experiment [2] was “binds” in each case.

As for “Tango (Tgo), the fly homologue of Arnt, endogenous (from UniProt O15945 1-642)”, in experiment [3], the binding result was “binds”.

The record behind these values is paper PMC2975661.
